The results in this text go back to publication PMC4150809.

In data set [1] the target is LYAR (endogenous, K562 nuclear extract + identified by anti-LYAR supershift) (Homo sapiens (K562 cells)) (UniProt Q9NX58). As to the kind of experiment: competition EMSA. The following applies: LightShift kit binding buffer, 15-20 min room temperature, 6% native PAGE in 0.5x TBE, protein in an extract. Background: Mobility shift assays separate free from complexed probe on a gel.

The target is the same in data set [2]. As to the kind of experiment: EMSA supershift. The note with it: anti-LYAR antibody supershifts bands I and II, control IgG does not, LightShift kit binding buffer, 15-20 min room temperature, 6% native PAGE in 0.5x TBE, protein in an extract, label: 5'-biotin on the printed strand.

Construct, isoform or probe ends are uncertain for at least one entry. Results from cells or extracts need not show a direct contact. For part of these data: No signal at the amounts used counts as a negative.

As to “AACGTCTGAGGTTATCAATAAGCT (double strand) [gamma-globin 5'UTR WT cold competitor]”, the binding result in data set [1] (10-, 50-, 100-fold excess, band I easily competed) was “binds”.

“AACGTCTGAGGTTATCAATAAGCT (double strand) [gamma-globin 5'UTR WT probe (+17 to +40)]”: the binding result in data set [2] was “binds”.

As to “AACGTCTGATTCCGTCAATAAGCT (double strand) [gamma-globin 5'UTR Mut cold competitor]”, the binding result in data set [1] (up to 100-fold excess, neither band I nor II competed) is listed as “no binding”.
